Measurements from patent US5441987A, “Antifungal agent” (Merck & Co., Inc., priority 1994, dated 1995).
Converted amounts (≈) assume the structure as drawn.

What was measured:
C. albicans (MY 1750) = assay: broth microdilution MIC/MFC assay; conditions: Candida albicans, 24 h, read-out: Minimum Inhibitory Concentration (MIC)
[1] = system: Candids albicans (MY 1028); assay: broth microdilution MIC/MFC assay; conditions: Candida albicans, 24 h, read-out: Minimum Inhibitory Concentration (MIC)

For C[C@@H]1[C@H](O)[C@@H](C)/C=C/C=C/C=C/C=C/C=C/C=C/C=C/[C@H](O[C@@H]2O[C@H](C)[C@@H](O)[C@H](N)[C@@H]2O)C[C@@H]2O[C@](O)(C[C@@H](O)C[C@@H](O)[C@H](O)CC[C@@H](O)C[C@@H](O)CC(=O)O[C@H]1C)C[C@H](O)[C@H]2C(=O)O [Amphotericin B, reference compound], the MIC (C. albicans (MY 1750)) was 2 µg/mL (≈ 2.16 µM) and the MIC [1] was 2 µg/mL (≈ 2.16 µM).
